These are yes or no findings as the source states them, for the method shown. Binding seen in cells or lysates may run through a third protein. Some binding calls cover weakened binding; strength is not graded here.

Sequences of proteins named here, by UniProt entry; tags and fusion partners are left off.
UniProt P18669: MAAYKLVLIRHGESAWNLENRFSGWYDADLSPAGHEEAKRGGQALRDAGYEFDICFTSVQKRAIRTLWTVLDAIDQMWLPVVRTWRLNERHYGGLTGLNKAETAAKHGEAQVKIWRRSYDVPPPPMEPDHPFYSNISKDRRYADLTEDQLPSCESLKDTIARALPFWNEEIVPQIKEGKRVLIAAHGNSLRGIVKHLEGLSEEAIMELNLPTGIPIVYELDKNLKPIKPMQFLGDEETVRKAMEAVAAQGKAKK
UniProt P23743: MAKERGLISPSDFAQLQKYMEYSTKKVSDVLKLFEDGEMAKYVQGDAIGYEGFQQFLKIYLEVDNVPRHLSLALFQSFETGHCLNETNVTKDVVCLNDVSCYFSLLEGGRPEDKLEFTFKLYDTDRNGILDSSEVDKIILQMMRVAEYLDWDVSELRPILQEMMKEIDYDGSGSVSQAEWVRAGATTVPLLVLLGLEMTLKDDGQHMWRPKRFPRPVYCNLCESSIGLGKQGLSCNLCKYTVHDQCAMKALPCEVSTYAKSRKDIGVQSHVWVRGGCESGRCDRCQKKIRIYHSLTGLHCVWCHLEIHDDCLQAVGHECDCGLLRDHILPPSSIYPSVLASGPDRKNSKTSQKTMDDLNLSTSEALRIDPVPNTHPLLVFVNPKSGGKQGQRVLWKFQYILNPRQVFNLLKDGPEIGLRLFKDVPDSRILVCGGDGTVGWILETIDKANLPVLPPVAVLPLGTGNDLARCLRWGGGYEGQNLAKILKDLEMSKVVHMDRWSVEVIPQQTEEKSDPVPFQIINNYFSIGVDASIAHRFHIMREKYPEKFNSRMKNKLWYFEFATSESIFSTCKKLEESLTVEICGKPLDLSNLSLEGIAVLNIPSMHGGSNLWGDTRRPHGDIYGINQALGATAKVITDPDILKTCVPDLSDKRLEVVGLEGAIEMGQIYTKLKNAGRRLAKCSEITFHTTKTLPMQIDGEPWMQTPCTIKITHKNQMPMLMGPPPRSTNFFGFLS
UniProt Q13574: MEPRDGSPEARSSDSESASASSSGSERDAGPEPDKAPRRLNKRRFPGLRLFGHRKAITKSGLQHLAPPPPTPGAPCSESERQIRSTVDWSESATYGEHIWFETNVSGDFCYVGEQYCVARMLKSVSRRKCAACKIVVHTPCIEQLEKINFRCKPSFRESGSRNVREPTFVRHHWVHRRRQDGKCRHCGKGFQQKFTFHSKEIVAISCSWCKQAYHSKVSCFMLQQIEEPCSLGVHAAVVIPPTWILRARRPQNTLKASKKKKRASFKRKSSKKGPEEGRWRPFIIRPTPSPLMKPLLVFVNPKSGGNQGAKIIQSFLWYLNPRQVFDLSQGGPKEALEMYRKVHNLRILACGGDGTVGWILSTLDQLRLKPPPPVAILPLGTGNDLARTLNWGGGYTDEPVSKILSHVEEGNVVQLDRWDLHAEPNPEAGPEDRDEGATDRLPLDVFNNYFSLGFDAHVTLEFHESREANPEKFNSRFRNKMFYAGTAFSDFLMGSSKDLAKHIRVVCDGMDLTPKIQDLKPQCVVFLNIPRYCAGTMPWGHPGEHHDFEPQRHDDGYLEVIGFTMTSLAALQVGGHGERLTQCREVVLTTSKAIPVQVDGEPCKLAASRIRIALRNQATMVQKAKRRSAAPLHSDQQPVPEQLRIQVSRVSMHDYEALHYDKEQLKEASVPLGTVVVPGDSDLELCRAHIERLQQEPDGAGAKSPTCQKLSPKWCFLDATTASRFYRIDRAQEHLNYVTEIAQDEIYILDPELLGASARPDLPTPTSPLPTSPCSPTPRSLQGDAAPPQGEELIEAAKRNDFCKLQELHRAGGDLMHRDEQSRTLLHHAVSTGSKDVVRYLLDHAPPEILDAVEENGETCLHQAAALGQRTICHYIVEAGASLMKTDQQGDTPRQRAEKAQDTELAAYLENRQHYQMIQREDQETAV

Our source for the binding values is publication PMC12513065.

B1: diacylglycerol kinase δ (DGKδ) (enzyme, UniProt Q16760 1-1214)
chain: MAAAAGAPPPGPPQPPPPPPPEESSDSEPEAEPGSPQKLIRKVSTSGQIRQKTIIKEGMLTKQNNSFQRSKRRYFKLRGRTLYYAKTAKSIIFDEVDLTDASVAESSTKNVNNSFTVITPCRKLILCADNRKEMEDWIAALKTVQNREHFEPTQYSMDHFSGMHNWYACSHARPTYCNVCREALSGVTSHGLSCEVCKFKAHKRCAVRATNNCKWTTLASIGKDIIEDADGIAMPHQWLEGNLPVSAKCTVCDKTCGSVLRLQDWRCLWCKAMVHTSCKESLLTKCPLGLCKVSVIPPTALNSIDSDGFWKASCPPSCTSPLLVFVNSKSGDNQGVKFLRRFKQLLNPAQVFDLMNGGPHLGLRLFQKFDTFRILVCGGDGSVGWVLSEIDSLNLHKQCQLGVLPLGTGNDLARVLGWGSACDDDTQLPQILEKLERASTKMLDRWSVMAYEAKLPRQASSSTVTEDFSEDSEVQQILFYEDSVAAHLSKILTSDQHSVVISSAKVLCETVKDFVARVGKAYEKTTESSEESEVMAKKCSVLKEKLDSLLKTLDDESQASSSLPNPPPTIAEEAEDGDGSGSICGSTGDRLVASACPARPQIFRPREQLMLRANSLKKAIRQIIEHTEKAVDEQNAQTQEQEGFVLGLSESEEKMDHRVCPPLSHSESFGVPKGRSQRKVSKSPCEKLISKGSLSLGSSASLPPQPGSRDGLPALNTKILYPNVRAGMSGSLPGGSVISRLLINADPFNSEPETLEYYTEKCVMNNYFGIGLDAKISLDFNNKRDEHPEKCRSRTKNMMWYGVLGTKELLHRTYKNLEQKVLLECDGRPIPLPSLQGIAVLNIPSYAGGTNFWGGTKEDDTFAAPSFDDKILEVVAVFGSMQMAVSRVIRLQHHRIAQCRTVKISILGDEGVPVQVDGEAWVQPPGYIRIVHKNRAQTLTRDRAFESTLKSWEDKQKCELPRPPSCSLHPEMLSEEEATQMDQFGQAAGVLIHSIREIAQSHRDMEQELAHAVNASSKSMDRVYGKPRTTEGLNCSFVLEMVNNFRALRSETELLLSGKMALQLDPPQKEQLGSALAEMDRQLRRLADTPWLCQSAEPGDEESVMLDLAKRSRSGKFRLVTKFKKEKNNKNKEAHSSLGAPVHLWGTEEVAAWLEHLSLCEYKDIFTRHDIRGSELLHLERRDLKDLGVTKVGHMKRILCGIKELSRSAPAVEA

In this experiment the target is 6 × His-tagged phosphoglycerate mutase 1 (PGAM1) (human) (UniProt P18669). Briefly: pull-down; about 50 μg purified 6 × His-PGAM1 held on Ni-NTA agarose beads, incubated with 300 μg HEK293T cell lysate (Pierce IP Lysis Buffer) for 2 h at 4 °C; washed five times with 20 mM Tris-HCl pH 7.5, 300 mM NaCl, 0.1 % Tween-20; eluates blotted for endogenous DGKα, δ, ζ; Ni-NTA beads without PGAM1 as control; only the target purified.
Regarding “diacylglycerol kinase α (DGKα) (from UniProt P23743 1-735) (enzyme)”, the binding entry is given as “no binding”.
In the case of “diacylglycerol kinase ζ (DGKζ) (from UniProt Q13574 1-928) (enzyme)”, the binding result is “binds”.
The same measure for B1: “binds”.
